The term AC50 denotes the concentration giving half of the maximal activity seen.

Each structure is given as a SMILES string. The list shows a part of the results. Shown are side measurements of this screen, not its main read-out; they come without a call. The list favours compounds with an active or inconclusive main result. Potencies come from curve fits of mixed quality, noted in brackets.

A short description of this assay: qHTS Assay for Lipid Storage Modulators in Drosophila S3 Cells.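 For cell number change: cells counted by Cell Tracker Red CMTPX staining in the red channel.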 As to conditions: BODIPY lipid droplet fluorescence, 18-24 h; for cell number change: measured here: cell count max response, cells fed with added oleic acid. The essentials: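 Drosophila S3 cells loaded with oleic acid (400 uM, as added) and compounds at several concentrations; lipid droplets imaged by 488-nm laser-scanning cytometry, 500–530 nm intensity and object ratio to cell channel. Percent activity normalized to 20 uM Triacsin C.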
(In general: In qHTS, concentration-response curves come from the screen itself.)

Setting [1] is: measured here: cell number channel AC50, cells fed with added oleic acid.
Where [2] appears, read: measured here: lipid fluorescence (Fed channel) AC50, cells fed with added oleic acid.

Consider `C=CCOC(=O)C(=O)/C=C/c1coc2ccccc2c1=O`, for which the cell number change is -31.3%. Besides, the AC50 under setting [1] is 25.9 µM [falling, single point]. Moreover, the AC50 under setting [2] is 18.4 µM [falling, single point].

Turning to `O=C1CCC/C1=C/Nc1ccc2c(c1)OCO2`, under setting [2], the AC50 was 0.13 µM [rising, full curve].

Regarding `CCNCc1cc(Cl)cc(OC)c1OC(C)C`, the cell number change worked out at 8.37%. In addition, the AC50 under setting [2] is 29.1 µM [rising, single point].

As to `CN=C(Nc1cccc(OC)c1)SC1CC(=O)N(c2ccc(C(=O)O)cc2)C1=O` (stereo unspecified), under setting [2], the AC50 is 0.0259 µM [falling, full curve, poor fit].

Consider `Cc1ccc(C)c(NC(=O)Cn2nnc(C(=O)NCc3ccco3)c2N)c1`, for which the cell number change was determined as 20.9%.

Regarding `Cc1ccc(NC(=O)C(C)N2C(=O)c3ccccc3C2=O)cc1C` (stereo unspecified), the cell number change is -6.61%. For the same compound, under setting [2], the AC50 is 6.51 µM [rising, single point].

Turning to `COc1ccc(C(CCNC(C)c2ccccc2)C(C)C)cc1` (stereo unspecified), the cell number change worked out at 23.1%. The AC50 under setting [2] was 29.1 µM [rising, single point].

In the case of `CN(C)S(=O)(=O)c1ccc(NC(=O)c2cc3ccccc3o2)cc1`, the cell number change was -14.3%. For the same compound, the AC50 under setting [2] is 0.461 µM [rising, full curve].

For the compound `O=C(CN1CCN(c2cccc(Cl)c2)CC1)Nc1nccs1`, the cell number change was -24.1%.

For the compound `CC(NC(=O)Cn1nc(C(F)(F)F)c2c1CCC2)c1ccccc1` (stereo unspecified), under setting [2], the AC50 is 1.16 µM [rising, single point].

Consider `CCC1CN(C(=O)N2CCC(C(=O)NCc3ccc(F)cc3)CC2)c2ccccc2O1` (stereo unspecified), for which the cell number change was 2.65%.

Take `COc1ccc(CN(C(=O)Cn2nnc3ccccc32)C(C(=O)NC(C)(C)C)c2ccco2)cc1` (stereo unspecified): the cell number change amounted to 16.8%.

Turning to `O=C(Cc1cccc2ccccc12)Nc1nc2ccccc2[nH]1`, the cell number change worked out at 7.13%. In addition, the AC50 under setting [1] is 1.3 µM [rising, partial curve, poor fit].

For `Cc1noc(C)c1COc1cccc(C(=O)OC(C)C#N)c1` (stereo unspecified), the AC50 under setting [2] is 6.51 µM [rising, single point].

As to `CN1CCN(CC(O)COCc2ccc3c(c2)OCO3)CC1` (stereo unspecified), the cell number change was 32.8%. For the same compound, under setting [1], the AC50 was 0.326 µM [rising, full curve]. Under setting [2], the AC50 was 6.51 µM [rising, single point].

Take `O=C(Cn1nnc(-c2ccccc2)n1)OCc1ccccc1`: the cell number change amounted to 8.33%. Also, the AC50 under setting [2] is 0.651 µM [rising, full curve, poor fit].

For the compound `CN(CCOc1ccccc1)C(=O)c1ccc(F)c(S(=O)(=O)N2CCOCC2)c1`, the cell number change was determined as 15%.

Consider `CCN(C(=O)CSc1ncnc2sccc12)c1c(N)n(Cc2ccccc2)c(=O)[nH]c1=O`, for which the cell number change is 8.33%. Besides, under setting [2], the AC50 is 6.51 µM [rising, single point].

As to `CN(C(=O)CN1C(=O)NC(C)(CCc2ccccc2)C1=O)c1ccccc1` (stereo unspecified), the cell number change was -6.5%.

On to `O=C(C#Cc1ccccc1)c1ccco1`, for which, under setting [2], the AC50 is 1.3 µM [falling, full curve].

`C=CCOc1ccc(/C=C/C(=O)OCC(=O)NCc2ccco2)cc1`: the AC50 under setting [2] was 2.31 µM [falling, partial curve].

`CCn1c2ccccc2c2cc(/C=N/O)ccc21`: the cell number change worked out at 19.8%. Further, the AC50 under setting [2] is 10.3 µM [rising, partial curve, poor fit].

For the compound `Cc1ccc(OCc2cc(C(=O)N3CCc4[nH]cnc4C3c3ccccn3)no2)cc1C` (stereo unspecified), the cell number change is 7.65%. Also, the AC50 under setting [2] is 6.51 µM [rising, partial curve, poor fit].

On to `COc1ccc(NC(=O)CN(c2ccc(F)cc2)S(=O)(=O)c2ccccc2)c(OC)c1`, for which the cell number change was -50.7%. Further, the half-maximal activity concentration (AC50) under setting [1] is 6.51 µM [falling, partial curve]. Under setting [2], the AC50 is 7.31 µM [falling, partial curve].

For `N#C/C(=C/c1ccc(N2CCOCC2)o1)C(=O)N1CCOCC1`, the cell number change is 8.82%. Also, the concentration at half-maximal activity (AC50) under setting [2] is 20.6 µM [falling, single point].

For the compound `CCN(CC)c1ccc2cc(C(N)=O)c(=N)oc2c1`, the cell number change is -53.3%. In addition, under setting [1], the AC50 was 0.0259 µM [falling, full curve, poor fit]. Also, under setting [2], the concentration at half-maximal activity (AC50) is 0.0291 µM [falling, full curve, poor fit].

As for `COc1ccc(C2C(C(C)=O)=C(O)C(=O)N2CCc2c[nH]c3ccccc23)cc1` (stereo unspecified), the cell number change was determined as 34%. Also, under setting [1], the AC50 was 29.1 µM [rising, single point].

On to `CCCc1nnc(NC(=O)CCC(=O)N2CCC(Cc3ccccc3)CC2)s1`, for which the cell number change is -4.13%. The AC50 under setting [2] is 0.58 µM [rising, single point].

Consider `CCC(C)(C)NC(=O)C(c1cccc(OC)c1OC)N(C(=O)CCC(=O)Nc1cc(C)on1)C(C)C` (stereo unspecified), for which the cell number change is 24.2%. Also, the AC50 under setting [1] was 2.91 µM [rising, full curve, poor fit].

As for `CCC(C)C(=O)Nc1nc(C)c(-c2csc(Nc3cc(OC)ccc3OC)n2)s1` (stereo unspecified), the AC50 under setting [1] is 6.51 µM [falling, single point].

Regarding `O=c1c2ccccc2[nH]c(=S)n1Cc1cccs1`, the cell number change is 28.5%. Besides, the AC50 under setting [2] was 9.2 µM [rising, partial curve].

On to `O=C(NCC1CCCO1)c1ccccc1NS(=O)(=O)c1ccc(F)cc1` (stereo unspecified), for which the cell number change is 32.2%. The AC50 under setting [1] is 29.1 µM [rising, single point]. Besides, under setting [2], the AC50 was 25.9 µM [rising, single point].

In the case of `Cc1ccc(Oc2ncnc(N)c2[N+](=O)[O-])cc1`, the cell number change was -36.4%. Further, the AC50 under setting [1] was 8.2 µM [falling, partial curve]. Under setting [2], the AC50 is 4.61 µM [falling, full curve].

In the case of `Cc1ccc(/C=C/S(=O)(=O)NCC(=O)OCC(=O)Nc2ccc(C(=O)N(C)C)cc2)cc1`, the cell number change was 15.8%. Further, the AC50 under setting [2] is 29.1 µM [rising, single point].

Turning to `COc1ccc(OCC(=O)N2c3ccc(C)cc3C3CN(C)CCC32)cc1` (stereo unspecified), under setting [1], the AC50 was 0.164 µM [rising, single point].

As for `CC(NC(=O)COC(=O)c1cc(NS(=O)(=O)c2ccc(Cl)c([N+](=O)[O-])c2)ccc1O)C1CC2CCC1C2` (stereo unspecified), the cell number change was -39.2%. The AC50 under setting [1] is 20.6 µM [falling, partial curve]. Besides, the AC50 under setting [2] was 13 µM [falling, partial curve].

Take `Cc1ccc(S(=O)(=O)CCSc2n[nH]c(=O)n2-c2ccc3c(c2)OCCO3)cc1`: the cell number change was 2.19%.

As for `COC(=O)c1c(-c2ccc(F)cc2)csc1NC(=O)c1ccco1`, the cell number change is -26.6%. Also, under setting [2], the AC50 was 6.51 µM [rising, single point].

As to `CO/N=C/C(C#N)=C/c1ccc(OC)cc1`, the cell number change amounted to 10.2%.

For the compound `COC(=O)c1ccc(COc2ccc(/C=N/N3CCN(C)CC3)cc2)cc1`, the cell number change is -117%. The half-maximal activity concentration (AC50) under setting [1] is 23.1 µM [falling, partial curve, poor fit].

The values above are taken from PubChem BioAssay AID2685 (National Center for Advancing Translational Sciences (NCATS), 2010).
